Hit rate of the full screen: of about 53,000 sequences, about 3,700 (7%) were called active.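 Rule for the calls: active = gene knockdowns whose robust z-score for IL-1 alpha signal is at least 2 or at most -2, so actives lie on both sides; inactive = the rest.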 This is one part of the list.
test: Components of the Cytosolic LPS Sensing Pathway: Gene Identification via Genome-wide siRNA Screen; settings: RAW264.7 macrophages, IL-1a HTRF, actives lie on both sides, screened at 100 nM (by protocol), cells primed 5 h with Pam3CSK4 first;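 note: robust z of the log signal after scaling to non-targeting control siRNA wells of the plate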
Summary of the method: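 IL-1a HTRF of supernatants after 24 hour LipidA transfection of Pam3CSK4-primed (5 hours) RAW264.7 cells, 48h post-siRNA transfection (100 nM). Scores: percent of plate negative-control median, then log-based robust z-score.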

z-score, active:
CGGUUCUGGUGCAUUCACATT against Olfr242 -2.06
GGUACCAUCCGGAAUACAATT against Zdhhc19 3.95
GCGUAACGCAGCAGCUAAGTT against Tarbp2 -3.01
CUUCUUGGUGGGUCUGACUTT against Taar7e -2.63
GGAGGUCAAAGUAAACUGGTT against Tial1 2.2
GGGCUAUCUUCUGAUUGGCTT against Zp3r -2.45

z-score, inactive:
GGAGGGUGAUCUCAUUGAATT against Prkd1 0.479
GGCUCCAACAGCGACAUGUTT against Glul 0.851
GCUAAUAACAGUCCUUUCATT against Rorc -1.37
GGAGCUGCGCAACAUUAUCTT against Ada -1.11
CCCUCAUCUUUGACGUGGATT against Fkbp1b 1.62
GCUCAGUAAUCGCUGUCUATT against Olfr91 -0.62
GGACUUAUCACUAUUUGCATT against Dlgap3 0.782
GGUGAAUCGGUUUUCAGAUTT against Iffo2 1.27
CCUCUCAUGAUGUUACCACTT against Rubcnl -1.56
GGAUAUCGGAUAUGUAAAUTT against Syk 0.252
GCAGGCUAUGCUACGCACATT against Arsb -1.66
GGCUUUCUCCAAGCUAUAUTT against Tdgf1 -1.83
GGCAAGGUCAAGGACACCATT against Tcp11 -0.77
GAAGGAGACAGCACAAGUCTT against H2-M10.2 1.39
GGGUUUAAAGGUUAUGGAGTT against Adam17 -0.814
GGUAAAUUACUCUGAUCAATT against Gpr61 -0.593
GGUUCUCCUUGUUUUGCUGTT against Defb20 1.17
GGGUCUCACUCUCUUCCGATT against Slc23a1 -0.329
GGAAUAUGAAGCAUAAGUGTT against Tcim -0.0103
GCUGGUAUUCAGCACCUUUTT against Cyp17a1 0.357
GGACUUCGACAAACUGAAGTT against Zfp532 0.547
GGAUCUCUUUUUUCACAUGTT against Kcne2 0.605
GCUUUGCACAAAACACUUATT against Zfp345 -0.635
GGCAUUUGUAAUAUGGAGATT against Erlin1 -0.823
GCCCUAGGACCAAGAACAATT against 9930012K11Rik -0.734
GCCUUGGCCUAAGUUAUACTT against Ttll12 -0.223
GGCAUUCAUGUUCUUGACUTT against Ptp4a1 -1.48
GGAACAAAGUAGGAGCUUGTT against Zfp318 0.369
CGUGGAUGAUACCAAAAUGTT against Igsf21 -0.73
CCUUCUGGUAGUGAUUAUCTT against Olfr1535 -0.324
GGGAAGUGGCUUUUGAUGUTT against Itih1 -0.849
GGAAGAAACCUUUGUCAAGTT against 9130023H24Rik -0.398
CGAAUCGAGUGAAGAAAAATT against 4930544G11Rik -0.41
GGCAUUUACCAAGUUCCUGTT against Olfr522 -1.26
GGUGUUUAAGGAUGAACAATT against L3mbtl3 0.104
GCCAGUUUACACCAGAGUCTT against Tecta 0.305
GCGGGAAAAUGAGACCAAATT against Bin3 1.95
GGAUAUAAGUUCCAGUUUGTT against Fam166b 0.834
CCCGAUUAUCUAGUGAUACTT against Sbk1 0.311
GCAAUUCGAUUGAAGAUCUTT against Aoc3 0.285
GCUAGAGGCUCAAAUACAGTT against Tmem45b 0.664
GGUCCCUACAGGGAACAAATT against Trim10 0.197
GACAGUUAACCUUUUAAGATT against Pigyl -0.483
GGUUCAAGAGGAGACUACUTT against BC005624 -0.127
GGAUGGCUACAUUGACUUCTT against Guca1a -1.01
CGAGAAAUAUAUGAAUGUCTT against Adgrl4 -0.871
CCAUUUUUCCUACGUGGGUTT against Zfand2a 0.449
GGGAAGUCAAAGAAGAAUGTT against 2010106E10Rik 0.0964
GGAUUCUGUGACCCUUGCATT against Bcam -0.0454
GGGAACCUUGUCAUGAUGATT against Tbc1d16 -0.98
GCCGUUUAUCCUAUGAACUTT against Fign 0.744
GCUGUGUGUGAUUGAUUGGTT against Mgme1 0.255
GGCUAACAACUUCUACAUCTT against Wasf3 0.0369
CCCAGGCAUACUACAAGGUTT against Ermn 0.32
GGCUUGUAAUCCUAGAUGUTT against Sae1 -1.37
CCUCAUAUAUCCCUAAUUATT against Camk1g -0.982
GGUGCUGUGUAAUCACCGATT against Psmc2 -0.903
GUCCAGAUGGCUAAUUCUATT against Rpl23a 1.14
GGAAAUUCUACAGAAGUCUTT against Ecscr -0.659
GGAAAUGGCACAAGAAGUCTT against Tslp 0.259
GUUUAUCCUUAUGGGUUUATT against Olfr456 1.74
GAUCCUUUCCUUCUUCCUCTT against Olfr1086 -0.745

No new results follow: an excerpt of the list.
z-score, inactive:
CCUCUCAUGAUGUUACCACTT against Rubcnl -1.56
GGAUAUCGGAUAUGUAAAUTT against Syk 0.252
GCAGGCUAUGCUACGCACATT against Arsb -1.66

— PubChem BioAssay AID1508600 (Functional Genomics Laboratory (NCATS/FGL), 2020)
